Test results from patent publication US10822723.
No constants are given. Whether binding was seen depends on the method and setting. Some results given as binding are weak or reduced against the parent protein; the word gives no strength.

Protein sequences, listed by entry. Tags and fused reporters are not part of them. Residues count along the entry.
UniProt O96013, residues 286-591: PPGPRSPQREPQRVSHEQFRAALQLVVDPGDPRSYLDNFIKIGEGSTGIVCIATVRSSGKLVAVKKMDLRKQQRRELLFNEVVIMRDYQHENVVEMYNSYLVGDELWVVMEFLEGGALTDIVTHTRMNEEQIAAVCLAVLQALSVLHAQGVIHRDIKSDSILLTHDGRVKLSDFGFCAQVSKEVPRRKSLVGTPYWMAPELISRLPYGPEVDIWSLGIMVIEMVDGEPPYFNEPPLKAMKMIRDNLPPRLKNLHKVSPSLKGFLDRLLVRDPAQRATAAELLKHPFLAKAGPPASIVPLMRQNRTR

Target: 6His-PAK4cat, recombinant catalytic domain of PAK4 (286-591) (human) (UniProt O96013)
Assay: in vitro co-crystallisation, X-ray structure

AEDWTAALLNRGRSRQPLVLGDW [iBox 23mer synthetic peptide …]
binding: binds
